These results are taken from the supplement of paper PMC8728848.

The other results are listed elsewhere or left out.

Assay [1] has as its target Neu5Gc(a2-8)Neu5Gc(a2-6)Gal(b1-4)GlcNAc. Briefly: glycan array binding signal (z-score within array); higher = stronger binding. The following applies: glycan notation: IUPAC condensed, linker removed. Put shortly:
(§1)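 Negative Z-scores can be read as non-binding. The Z-score is calculated within each array and then averaged across arrays of one protein sequence at different concentrations or buffers and across linkers. Arrays, 3228 in all, were curated from the Consortium for Functional Glycomics database and kept only where the protein sequence was available.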

The target of assay [2] is Neu5Gc(b2-6)Gal(b1-4)GlcNAc. The description is as above. The following applies: glycan notation: IUPAC condensed, linker removed. Put shortly: as §1

B1: PX9937I-bfa-538-26-538 (Bacteroides fragilis) (protein)
chain: DKLDLSPIDYYGSGSYWKTEAQATAYIDGIHKHLRDAAWQHTITFGELRGGRFITGASSDGMGVSNGDIILQNFDETHTGVSKFGDLFGRITNLNLFIARVTDATYLSDEMKNFYLGEVYGLRAFYYFDLYRIYGGVPLRLTADVVEGVIDPNKLYMARSTPKEVMTQIKSDLNKSMEYFGNMNDFDPYKRGKKVYWSKAATECLMGEVYLWTSKVTTGDDVANPADLTIAKTHLESVLNNYNLKMLDDFSQVFNAKNKANDEIIFAIRFLEGEATNSNGTFTYNVGTGSTKNRYQANGEVFGDALDIQNTGNQTYEYNKAVYQNFDDADTRKEATFIASYNKDGKTGELSLYGTHVRKNIGYVNAQGARVYCGDYIFYRLPWVYLTLAEIANMEGDNAAVAKYINLVRKRAYGNAWDETLYAYPETADFTTNELAILHEKDKEFIQEGQRWWDLRRMTLTKGGTPLVFCKEGSLLGDAPILNKSTEAHKLLWPIEKTMLNKDPALEQTPGYK
Consider B1, for which the “glycan array binding signal (z-score)” value in assay [1] is -0.156; in assay [2], -0.205.
